Measurements published in patent US20130217865A1.
No constants are given. Whether binding was seen depends on the method and setting. Some entries that bind do so weakly or less than the wild type.

What was measured:
[1] = biological target: T1, recombinant alpha-fetoprotein (AFP), 67 kDa, from RDI (UniProt P02771); assay: SDS-PAGE / Western blot
T1 sequence (looked up): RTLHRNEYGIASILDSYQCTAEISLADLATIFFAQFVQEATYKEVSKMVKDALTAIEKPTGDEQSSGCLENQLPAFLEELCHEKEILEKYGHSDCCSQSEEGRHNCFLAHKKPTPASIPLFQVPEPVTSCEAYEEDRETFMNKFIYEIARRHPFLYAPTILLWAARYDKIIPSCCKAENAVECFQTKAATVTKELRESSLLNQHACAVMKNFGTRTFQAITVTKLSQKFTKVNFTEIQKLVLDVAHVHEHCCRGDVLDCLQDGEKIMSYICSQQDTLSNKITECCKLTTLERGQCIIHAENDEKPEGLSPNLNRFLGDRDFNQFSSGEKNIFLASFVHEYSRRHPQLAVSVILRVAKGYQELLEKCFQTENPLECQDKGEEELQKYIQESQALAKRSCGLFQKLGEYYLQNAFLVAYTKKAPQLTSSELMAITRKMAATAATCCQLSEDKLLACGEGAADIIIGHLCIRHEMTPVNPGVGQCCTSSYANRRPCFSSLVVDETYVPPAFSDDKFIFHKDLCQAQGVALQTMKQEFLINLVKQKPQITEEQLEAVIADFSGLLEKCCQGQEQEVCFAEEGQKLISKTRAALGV

[2] = biological target: T1, recombinant alpha-fetoprotein (AFP), 67 kDa, from RDI; assay: SDS-PAGE / Western blot of 0.3 µg recombinant AFP probed with VB1-008
[3] = biological target: T1, recombinant alpha-fetoprotein (AFP), 67 kDa, from RDI; assay: Western blot of recombinant AFP probed with VB1-008 (FIG. 15A)

Measured: binding

B1: VB1-008 monoclonal antibody (antibody, human IgG1, V domains shown)
VH: QVQLQELGPRLVRPSQTLILTCTVSGGSVSGDEYYWSWLRQTPGKGLEWIGYMSYRGSSYYSPSLQSRVTIAVDRSKNEFSLKLTSVTAADAAVYFCARKYCGGDCRSGFDIWGRGTMVTVAS
VL: YELTQPPSVSVSPGQKAFITCSGDNLGNKYVCWYQQKPGQSPVLVIYEDTKRPSGIPERFSASNSGNTATLTISGTQPIDEADYYCQAWDSRTEIFGTGTKVTVLS
binds: all assays above
